Experimental findings from PMC7862700 are described below.

Amino acid sequences for entries named in this document (tags omitted). A change or cut given only in a name is not applied to a line headed by its entry.
UniProt Q00613: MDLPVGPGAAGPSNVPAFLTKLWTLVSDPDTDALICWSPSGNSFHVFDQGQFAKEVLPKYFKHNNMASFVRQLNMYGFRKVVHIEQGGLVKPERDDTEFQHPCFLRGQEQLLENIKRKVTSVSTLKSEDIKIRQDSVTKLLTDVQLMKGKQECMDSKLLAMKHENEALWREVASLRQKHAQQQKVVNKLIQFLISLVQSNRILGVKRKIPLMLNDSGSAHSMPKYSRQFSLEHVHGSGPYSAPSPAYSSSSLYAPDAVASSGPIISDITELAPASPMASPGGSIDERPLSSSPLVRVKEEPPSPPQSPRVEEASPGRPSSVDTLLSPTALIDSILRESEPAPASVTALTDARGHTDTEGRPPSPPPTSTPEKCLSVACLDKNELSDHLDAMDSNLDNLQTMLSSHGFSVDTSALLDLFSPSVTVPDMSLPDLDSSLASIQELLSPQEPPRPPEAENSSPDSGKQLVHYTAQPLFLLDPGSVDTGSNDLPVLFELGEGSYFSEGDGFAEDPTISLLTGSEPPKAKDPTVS

Only a part is listed here, and it is no random draw. For some assays here: At the low end of the ranking, values are background and their order means little. The list shows a part of the results. For some assays here: The source does not settle which construct or isoform was used.

One experiment concerns the target HSF1 (UniProt Q00613). Put plainly: DAPPL (digital affinity profiling via proximity ligation, sequencing). The note with it: 10 mM Tris-HCl pH 7.5, 50 mM NaCl, 1 mM DTT, 4% glycerol, room temperature, 30 min; GST-TFs on glutathione beads, 16-mer random dsDNA library, 0.1% …; high values mean tight binding; double strand, one strand shown; scale: fold enrichment (6-mer frequency, TF over GST control).
Turning to CTCCGT, the binding signal amounted to 0.945.
The same measure, in the same setting: in the case of ACACGG it was 0.727.
Still for that read-out and setting: in the case of GTAGTT it was 0.818; in that of TGTCAT, 0.963.
The same measure, in the same setting: in the case of CTGTCT it was 1.22; in that of GGAAGT, 0.691; in that of CTCTCG, 1.99.
For the sequence ACCGGT, the binding signal turned out to be 0.696.
Still for that read-out and setting: as for TGAAGC, the figure is 0.968; as for GTTGGC, 0.729.
Sequence GTAGCT came in with a binding signal of 0.926.
CCAACG gave a binding signal of 0.971.
TTGCAG had a binding signal of 0.967.
Take TCATTG: the binding signal was 0.886.
With TGACAA, the binding signal was found to be 1.06.
On the same count and under the same terms, as for AACCGG, the figure is 0.692; as for TGGCCA, 0.915; as for TCCTTC, 2.13.
With CCATCC, the binding signal amounted to 0.97.
Consider GATGCA, for which the binding signal was determined as 0.883.
Consider GGCGTT, for which the binding signal turned out to be 0.832.
In turn, AGCATG came in with a binding signal of 0.95.
CAACTT: the binding signal worked out at 1.22.
In the case of TTACAG, the binding signal came to 1.44.
Consider TTTTGG, for which the binding signal amounted to 1.44.
Same read-out and setting: as for TGCCAC, the figure is 0.881.
For CGAGAT, the binding signal stood at 1.52.
On the same count and under the same terms, in the case of GGACCT it was 1.18; in that of ATAAGG, 0.972.
The same measure, in the same setting: as for ACGGTA, the figure is 0.85; as for CCCACC, 0.868.
The same measure, in the same setting: in the case of TTCAGG it was 1.22; in that of ACGCGA, 1.04; in that of GGTAAC, 0.826.
In turn, GTTTAG displayed a binding signal of 0.892.
As for TCACCT, the binding signal was 1.03.
TGGACT gave a binding signal of 1.18.
The sequence CTTTGG came in with a binding signal of 1.26.
Same read-out and setting: in the case of CGTCAC it was 0.924; in that of CACCCG, 0.95.

The target of a further experiment is T1, ELF2 (UniProt Q15723).
T1 sequence: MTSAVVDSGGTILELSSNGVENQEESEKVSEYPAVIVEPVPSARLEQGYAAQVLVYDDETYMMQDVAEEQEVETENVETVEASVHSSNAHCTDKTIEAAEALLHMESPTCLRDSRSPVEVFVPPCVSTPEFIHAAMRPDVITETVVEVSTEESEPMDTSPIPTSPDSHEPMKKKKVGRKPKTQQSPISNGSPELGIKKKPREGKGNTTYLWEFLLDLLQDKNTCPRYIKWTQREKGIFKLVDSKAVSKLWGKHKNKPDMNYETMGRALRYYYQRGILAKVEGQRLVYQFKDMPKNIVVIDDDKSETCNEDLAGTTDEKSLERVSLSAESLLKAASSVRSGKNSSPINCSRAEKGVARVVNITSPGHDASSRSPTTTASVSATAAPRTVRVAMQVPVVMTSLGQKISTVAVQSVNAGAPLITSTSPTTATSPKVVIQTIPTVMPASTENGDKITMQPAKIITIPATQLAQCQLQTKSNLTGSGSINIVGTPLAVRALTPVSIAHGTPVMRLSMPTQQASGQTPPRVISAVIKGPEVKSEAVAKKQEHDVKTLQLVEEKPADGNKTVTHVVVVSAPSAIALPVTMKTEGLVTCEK
Described as above. To be noted: 10 mM Tris-HCl pH 7.5, 50 mM NaCl, 1 mM DTT, 4% glycerol, room temperature, 30 min; GST-TFs on glutathione beads, 16-mer random dsDNA library, 0.1% …; high values mean tight binding; double strand, one strand shown; scale: fold enrichment (6-mer frequency, TF over GST control).
Sequence CTCCGT returned a binding signal of 1.09.
Still for that read-out and setting: as for ACACGG, the figure is 1.19; as for GTAGTT, 1.06.
Sequence TGTCAT came in with a binding signal of 1.1.
Sequence CTGTCT displayed a binding signal of 1.35.
The same measure, in the same setting: in the case of GGAAGT it was 4.79; in that of CTCTCG, 1.32; in that of ACCGGT, 0.972.
In turn, TGAAGC displayed a binding signal of 0.968.
GTTGGC: the binding signal is 0.896.
In the case of GTAGCT, the binding signal amounted to 1.12.
Sequence CCAACG had a binding signal of 1.04.
In turn, TTGCAG displayed a binding signal of 1.06.
On the same count and under the same terms, as for TCATTG, the figure is 0.911.
The same measure, in the same setting: as for TGACAA, the figure is 1.16; as for AACCGG, 1.93.
On to TGGCCA, for which the binding signal amounted to 1.01.
The sequence TCCTTC registered a binding signal of 2.41.
Turning to CCATCC, the binding signal was 1.28.
The sequence GATGCA displayed a binding signal of 1.1.
On the same count and under the same terms, in the case of GGCGTT it was 0.979.
On the same count and under the same terms, in the case of AGCATG it was 0.925; in that of CAACTT, 1.71; in that of TTACAG, 1.14.
On the same count and under the same terms, in the case of TTTTGG it was 1.39.
Sequence TGCCAC returned a binding signal of 1.13.
Same read-out and setting: in the case of CGAGAT it was 0.811.
The same measure, in the same setting: in the case of GGACCT it was 1.37.
Regarding ATAAGG, the binding signal stood at 1.09.
Still for that read-out and setting: in the case of ACGGTA it was 0.959; in that of CCCACC, 1.09; in that of TTCAGG, 1.22.
The sequence ACGCGA displayed a binding signal of 0.813.
The sequence GGTAAC returned a binding signal of 1.01.
Regarding GTTTAG, the binding signal came to 0.808.
The same measure, in the same setting: as for TCACCT, the figure is 1.09; as for TGGACT, 1.21; as for CTTTGG, 1.05.
The same measure, in the same setting: as for CGTCAC, the figure is 1.16; as for CACCCG, 1.3.
